Results: PubChem BioAssay AID1345085 (National Center for Advancing Translational Sciences (NCATS), 2018)
Inconclusive means that the source gave no clear call. Such entries were picked first, then a sample of the others. A potency beside an inconclusive call is a rough fit, not a confirmed value. Calls of active or inactive are those of the source. Calls follow the shape of the dose curve; as a rule, active = well fitted cell-killing curve with a large enough effect; inconclusive = small, poorly fitted or top-dose-only effect, or effect the other way; inactive = no such curve, though single readings can be large or run the other way.

Tested on: Es-2
Assay: Confirmatory qHTS for gynecologic anti-cancer compounds from libraries of approved drugs and bioactive compounds; also: nearly all actives have a fitted effect of over 55% in size
Conditions: gynecologic cancer cell panel viability, ATPlite luminescence, 48 h; series mostly up to 57.6 µM
Outline: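 Cells (1,000/well) plated 16 h, then exposed 48 h at 37 °C to 11 concentrations (1:3) from 57.5 uM to 0.977 nM. Viability by ATPlite luminescence after 15 min; IC50 derived, with HEK 293T used for selectivity index.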
Potency is read from the fitted curve at half-maximal effect.

SMILES	Potency
CC(=O)c1cnc2ccc(-c3cc(Cl)c(O)c(Cl)c3)nc2c1NC1CCC(CN(C)C)CC1 (stereo not drawn)	inconclusive: 0.314 µM [cytotoxic, full curve]
CN1CCN(CCOc2cc(OC3CCOCC3)c3c(Nc4c(Cl)ccc5c4OCO5)ncnc3c2)CC1	inconclusive: 19.3 µM [cytotoxic, partial curve, poor fit]
COc1cc(N2CCC(N)CC2)ccc1Nc1ncc(Cl)c(-c2c[nH]c3ccccc23)n1	inactive
CO[C@@]12[C@H](COC(N)=O)C3=C(C(=O)C(C)=C(N)C3=O)N1C[C@@H]1N[C@@H]12	inactive
COc1ccc(CCC(=O)c2c(O)cc(O[C@@H]3O[C@H](CO)[C@@H](O)[C@H](O)[C@H]3O[C@@H]3O[C@@H](C)[C@H](O)[C@@H](O)[C@H]3O)cc2O)cc1O	inconclusive: 0.0069 µM [cytotoxic, single point]
COc1cc(C(=O)N2CCC(N3CCN(C)CC3)CC2)ccc1Nc1ncc2c(n1)N(C)c1ccccc1C(=O)N2C	inconclusive: 15.3 µM [cytotoxic, partial curve, poor fit]
Cc1ccccc1C(OCCN(C)C)c1ccccc1 (stereo not drawn)	inactive
C=CC(=O)Nc1cc2c(Nc3ccc(F)c(Cl)c3)ncnc2cc1OCCCN1CCOCC1	inconclusive: 27.3 µM [cytotoxic, partial curve, poor fit]
O=c1c2ccccc2nc2n1CCc1c-2[nH]c2ccccc12	inactive
C=CC(=O)Nc1cccc(Oc2nc(Nc3ccc(N4CCN(C)CC4)cc3)ncc2Cl)c1	inconclusive: 3.06 µM [cytotoxic, full curve]
CCc1cccc(CC)c1NC(=O)N1Cc2[nH]nc(NC(=O)c3ccc(N4CCN(C)CC4)cc3)c2C1	inconclusive: 17.2 µM [cytotoxic, partial curve, poor fit]
COc1cc(Nc2ncc3c(n2)-c2ccc(Cl)cc2C(c2c(F)cccc2OC)=NC3)ccc1C(=O)O	inactive
Cc1cnc(Nc2ccc(F)cc2Cl)nc1-c1c[nH]c(C(=O)NC(CO)c2cccc(Cl)c2)c1 (stereo not drawn)	inactive
CCCCN(CCCC)C(=O)CN1C[C@H](c2ccc3c(c2)OCO3)[C@@H](C(=O)O)[C@@H]1c1ccc(OC)cc1	inactive
COc1ccc2c(c1OC)C(=O)O[C@@H]2[C@H]1c2c(cc3c(c2OC)OCO3)CCN1C	inactive
Cc1cc(Nc2cc(N3CCN(C)CC3)nc(Sc3ccc(NC(=O)C4CC4)cc3)n2)n[nH]1	inconclusive: 43.2 µM [cytotoxic, single point]
COc1ccc(-c2ccc3c(N4CCOCC4C)nc(N4CCOCC4C)nc3n2)cc1CO (stereo not drawn)	inconclusive: 2.43 µM [cytotoxic, partial curve]
CS(=O)(=O)c1ccc(-c2cnc(N)c(C(=O)Nc3ccccc3)n2)cc1	inactive
COc1cc2c(Nc3ccc(NC(=O)c4ccccc4)cc3)ncnc2cc1OCCCN1CCOCC1	inconclusive: 0.243 µM [rising, partial curve, poor fit]

Fetched by structure from above, two records:
SMILES	Potency
Cc1cc(Nc2cc(N3CCN(C)CC3)nc(Sc3ccc(NC(=O)C4CC4)cc3)n2)n[nH]1	inconclusive: 43.2 µM [cytotoxic, single point]
O=c1c2ccccc2nc2n1CCc1c-2[nH]c2ccccc12	inactive

Following part.

SMILES	Potency
O=C1NC(=O)C(c2cnc3ccccn23)=C1c1cn2c3c(cccc13)CN(C(=O)N1CCOCC1)CC2	inconclusive: 0.193 µM [rising, full curve]
CCS(=O)(=O)c1cccc(-c2cc(C(=O)NC3CCN(C)CC3)c(C)c3[nH]c4ncc(C)cc4c23)c1	active: 5.99 µM
CCS(=O)(=O)N1CCN(c2ccc(Nc3ncc(C(N)=O)c(NC4CC4)n3)cc2)CC1	inactive
Cc1cc(Nc2cc(N3CCN(C)CC3)nc(/C=C/c3ccccc3)n2)n[nH]1	active: 24.3 µM
Cc1c(C)n(Cc2ccc(-c3ccccc3C(=O)O)cc2)c2ccc(C(=O)N[C@@H](C)c3ccc([N+](=O)[O-])cc3)cc12	inconclusive: 0.0009 µM
COc1ccc(-c2nc3ccc(C4=NNC(=O)CC4C)cc3[nH]2)cc1 (stereo not drawn)	inconclusive: 24.3 µM [cytotoxic, single point]
CCCCN(CCCC)CC(O)c1cc(Cl)cc2c1-c1ccc(Cl)cc1/C2=C/c1ccc(Cl)cc1 (stereo not drawn)	inactive
COc1cc2ncnc(Nc3ccc(F)c(Cl)c3)c2cc1OCCCN1CCOCC1	inactive
CCn1c(-c2nonc2N)nc2c(C#CC(C)(C)O)ncc(OCC3CCCNC3)c21 (stereo not drawn)	inconclusive: 8.63 µM [rising, partial curve, poor fit]
CC(C)[C@@H](CS(=O)(=O)C(C)C)N1C(=O)[C@@](C)(CC(=O)O)C[C@H](c2cccc(Cl)c2)[C@H]1c1ccc(Cl)cc1	inactive
N=C(N)c1ccc(OCCCCCOc2ccc(C(=N)N)cc2)cc1	inactive
CCc1nc(C(N)=O)c(Nc2ccc(N3CCC(N4CCN(C)CC4)CC3)c(OC)c2)nc1NC1CCOCC1	inconclusive: 3.78 µM [cytotoxic, full curve, poor fit]
O=c1[nH]c(=O)n([C@H]2C[C@H](O)[C@@H](CO)O2)cc1F	inconclusive: 0.172 µM [cytotoxic, full curve]
Cc1ccc2nc(N)[nH]c(=O)c2c1Sc1ccncc1	inconclusive: 3.43 µM [cytotoxic, single point]
CCc1c2c(nc3ccc(O)cc13)-c1cc3c(c(=O)n1C2)COC(=O)[C@]3(O)CC	active: 0.0385 µM
NC(=O)c1cnc(-c2ccc(C3(N)CCC3)cc2)c(-c2ccccc2)c1	active: 24.3 µM
Nc1nc(Cl)nc2c1ncn2C1OC(CO)C(O)C1F (stereo not drawn)	inconclusive: 1.09 µM [cytotoxic, full curve]
O=c1cc(CN2CCOCC2)occ1OCCCCCSc1ccnc2cc(C(F)(F)F)ccc12	inactive
CN(C)C1CCN(C(=O)c2ccc(NC(=O)Nc3nc(N4CCOCC4)nc(N4CCOCC4)n3)cc2)CC1	inconclusive: 6.11 µM [cytotoxic, full curve]
